Reference: US20220298217A1 (FLAGSHIP PIONEERING INNOVATIONS VI, published 2022)
These are yes or no findings as the source states them, for the method shown. Some results given as binding are weak or reduced against the parent protein; the word gives no strength.

Chains of the proteins cited; added tags and fusions are not shown.
UniProt P32121: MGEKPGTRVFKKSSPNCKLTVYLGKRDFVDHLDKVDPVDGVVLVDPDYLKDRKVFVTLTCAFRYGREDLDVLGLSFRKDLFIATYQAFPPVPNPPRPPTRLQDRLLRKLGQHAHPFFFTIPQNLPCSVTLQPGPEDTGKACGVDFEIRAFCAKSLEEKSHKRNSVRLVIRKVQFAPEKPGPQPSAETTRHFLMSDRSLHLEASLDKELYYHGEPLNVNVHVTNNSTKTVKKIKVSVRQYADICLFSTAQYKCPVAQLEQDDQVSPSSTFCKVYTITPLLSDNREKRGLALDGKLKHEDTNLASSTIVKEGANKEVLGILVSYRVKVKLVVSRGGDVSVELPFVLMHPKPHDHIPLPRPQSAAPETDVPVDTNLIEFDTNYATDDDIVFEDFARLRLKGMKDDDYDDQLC

Molecular target: T1, Flag-PTHR1-YFP (UniProt Q03431 27-593)
T1 sequence (looked up): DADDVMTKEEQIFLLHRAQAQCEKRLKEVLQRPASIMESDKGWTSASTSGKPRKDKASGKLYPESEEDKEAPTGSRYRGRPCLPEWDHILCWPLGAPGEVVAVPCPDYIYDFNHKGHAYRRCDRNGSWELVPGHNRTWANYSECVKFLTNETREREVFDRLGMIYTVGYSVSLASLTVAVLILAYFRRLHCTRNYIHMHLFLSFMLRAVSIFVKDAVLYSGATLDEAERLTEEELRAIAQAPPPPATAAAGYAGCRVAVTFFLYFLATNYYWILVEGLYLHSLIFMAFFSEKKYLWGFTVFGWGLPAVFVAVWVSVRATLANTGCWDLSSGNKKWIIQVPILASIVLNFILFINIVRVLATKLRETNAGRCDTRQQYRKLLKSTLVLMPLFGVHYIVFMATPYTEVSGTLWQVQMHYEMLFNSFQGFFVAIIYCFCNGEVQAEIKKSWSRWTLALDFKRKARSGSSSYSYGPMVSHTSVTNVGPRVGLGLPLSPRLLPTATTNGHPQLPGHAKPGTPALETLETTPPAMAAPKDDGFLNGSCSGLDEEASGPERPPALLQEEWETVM
Assay: BRET between beta-arrestin2-Rluc and Flag-PTHR1-YFP in co-transfected HEK293T cells, recruitment induced by agonist peptides

- binding: binds
Substance: beta-arrestin2-Rluc (from UniProt P32121 1-409)
